According to patent US20090286252A1 (NEW YORK UNIVERSITY, published 2009):
No constants are given. Whether binding was seen depends on the method and setting. Some entries that bind do so weakly or less than the wild type.

Sequences of proteins named here, by UniProt entry; tags and fusion partners are left off. A change or cut given only in a name is not applied to a line headed by its entry.
UniProt P10828: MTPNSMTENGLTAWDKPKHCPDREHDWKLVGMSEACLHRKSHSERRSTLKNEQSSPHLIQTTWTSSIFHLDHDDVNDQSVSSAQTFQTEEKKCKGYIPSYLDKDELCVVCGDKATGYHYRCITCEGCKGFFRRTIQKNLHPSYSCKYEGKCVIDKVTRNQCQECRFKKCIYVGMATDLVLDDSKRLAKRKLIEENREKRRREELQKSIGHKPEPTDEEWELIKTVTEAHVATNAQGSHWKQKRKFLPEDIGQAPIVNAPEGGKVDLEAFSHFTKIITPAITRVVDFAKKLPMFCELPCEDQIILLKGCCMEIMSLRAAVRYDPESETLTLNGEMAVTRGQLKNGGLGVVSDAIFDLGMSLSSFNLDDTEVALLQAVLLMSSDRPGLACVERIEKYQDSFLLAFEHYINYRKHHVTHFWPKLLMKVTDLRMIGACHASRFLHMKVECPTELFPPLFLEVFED
UniProt P62195: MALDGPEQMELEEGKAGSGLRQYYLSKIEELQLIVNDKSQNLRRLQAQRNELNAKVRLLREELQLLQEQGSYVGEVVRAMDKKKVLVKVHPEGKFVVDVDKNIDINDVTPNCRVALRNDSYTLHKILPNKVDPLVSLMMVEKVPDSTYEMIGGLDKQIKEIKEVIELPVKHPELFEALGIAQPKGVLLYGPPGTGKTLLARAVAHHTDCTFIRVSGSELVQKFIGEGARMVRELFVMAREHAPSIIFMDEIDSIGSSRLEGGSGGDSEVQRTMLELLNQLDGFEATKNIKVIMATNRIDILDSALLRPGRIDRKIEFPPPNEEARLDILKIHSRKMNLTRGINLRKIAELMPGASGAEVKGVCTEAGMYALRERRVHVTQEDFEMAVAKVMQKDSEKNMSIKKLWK
UniProt Q13352: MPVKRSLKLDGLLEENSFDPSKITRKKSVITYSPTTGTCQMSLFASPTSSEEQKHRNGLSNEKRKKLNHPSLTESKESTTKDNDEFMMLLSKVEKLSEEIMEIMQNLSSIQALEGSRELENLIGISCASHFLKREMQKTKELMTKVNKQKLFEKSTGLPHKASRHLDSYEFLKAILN

Assays:
[1] = biological target: T1, LexA-cTRα LBD (chicken, UniProt P0A7C2 1-202; P04625 120-408, limits assumed); experiment: yeast two-hybrid, β-galactosidase, positive control prey (FIG. 1)
T1 construct: also called LexA-TR LBD; LexA-TR
T1 sequence (looked up): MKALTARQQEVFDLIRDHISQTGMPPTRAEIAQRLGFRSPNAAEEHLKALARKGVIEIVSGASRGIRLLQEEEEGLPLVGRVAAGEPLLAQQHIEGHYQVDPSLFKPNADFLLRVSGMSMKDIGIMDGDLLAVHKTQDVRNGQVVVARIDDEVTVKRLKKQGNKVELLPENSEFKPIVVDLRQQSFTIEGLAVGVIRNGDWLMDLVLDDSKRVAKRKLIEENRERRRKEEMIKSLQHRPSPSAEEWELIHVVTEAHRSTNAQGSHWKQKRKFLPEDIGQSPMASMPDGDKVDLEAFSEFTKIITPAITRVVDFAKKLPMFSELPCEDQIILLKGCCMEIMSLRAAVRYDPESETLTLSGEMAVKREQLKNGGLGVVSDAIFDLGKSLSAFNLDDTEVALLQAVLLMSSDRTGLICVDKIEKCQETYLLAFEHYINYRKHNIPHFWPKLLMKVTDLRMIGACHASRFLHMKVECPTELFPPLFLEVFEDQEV

[2] = biological target: T1, LexA-cTRα LBD; experiment: yeast two-hybrid, β-galactosidase (Table 1); little if any interaction without ligand
[3] = biological target: T2, LexA-hRXRα LBD (human, UniProt P0A7C2 1-202; P19793 198-462, limits assumed); experiment: as above
T2 construct: also called LexA-RXR
T2 sequence (looked up): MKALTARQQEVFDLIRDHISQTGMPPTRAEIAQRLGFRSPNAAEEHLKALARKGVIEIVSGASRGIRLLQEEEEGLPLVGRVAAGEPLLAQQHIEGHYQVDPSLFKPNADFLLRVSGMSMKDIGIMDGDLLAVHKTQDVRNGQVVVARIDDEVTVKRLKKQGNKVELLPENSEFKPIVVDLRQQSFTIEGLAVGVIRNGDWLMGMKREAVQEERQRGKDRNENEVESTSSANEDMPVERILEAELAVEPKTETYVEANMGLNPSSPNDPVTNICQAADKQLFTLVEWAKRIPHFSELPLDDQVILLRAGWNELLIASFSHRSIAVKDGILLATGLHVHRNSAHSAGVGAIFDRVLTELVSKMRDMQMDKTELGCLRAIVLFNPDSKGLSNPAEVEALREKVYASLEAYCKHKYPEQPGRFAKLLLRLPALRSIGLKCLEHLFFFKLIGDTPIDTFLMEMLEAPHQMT

[4] = biological target: T1, LexA-cTRα LBD; experiment: yeast two-hybrid, β-galactosidase induced by T3 (FIG. 1 legend)
[5] = biological target: LexA-hTRβ LBD (human) (UniProt P0A7C2+P10828); experiment: yeast two-hybrid (data not shown)
[6] = biological target: T1, LexA-cTRα LBD; experiment: yeast two-hybrid (data not shown)
[7] = biological target: T1, LexA-cTRα LBD; experiment: yeast two-hybrid, β-galactosidase; little interaction without T3 (FIG. 1)

Measured: binding

B42-Trip 1 (from UniProt P62195 1-406)
binds: [1]

NRIF3 fused to the B42 activation domain (from UniProt Q13352 1-177)
binds: [2] | [3] | [4] | [5] | [6] | [7]
